Reference: PubChem BioAssay AID743454 (Peter MacCallum Cancer Centre, 2014)

Screen: 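Genes whose loss kills vorinostat-resistant colon cancer cells under vorinostat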 (primary screen)
Cells: human HCT116-VR colon cancer cells, selected for vorinostat resistance
Knock-down reagent: siRNA pool against human genes, 40 nM siRNA pool
Duration: vorinostat for 24 h, read-out about 72 h after transfection
Conditions: vorinostat at 2.5 µM final
Measured: 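Cell viability by CellTiter-Fluor and caspase 3/7 activity by luminescence, each scaled to mock wells per plate, duplicates averaged, then robust z-scored over all plates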
Scale: viability robust z-score: higher = more viable cells than screen typical; caspase robust z-score: higher = more caspase 3/7 activity than screen typical
Active means: 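Hits are knock-downs in viability class RV1/RV2 or caspase class CA1/CA2, excluding ones that killed cells in the no-drug cell-count arm; hits then retested with single siRNAs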
The deposit covers about 18,000 reagents; shown is a random part of them. 450 of all reagents (2.5%) count as active. 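Single biological run; no consistent viability z cut-off exists, so the class columns, not z-scores, define the calls.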 The numbers tell different reagents against one gene apart. Reagent sequences are not shown.

| Gene | reagent no. | viability hit class | caspase hit class | viability robust z-score | caspase robust z-score | call |
| --- | --- | --- | --- | --- | --- | --- |
| MAL | 1 | no change | no change | -0.41 | -0.18 | inactive |
| SSBP2 | 1 | no change | no change | 0.71 | 1.48 | inactive |
| BAG5 | 1 | no change | no change | 0.02 | -0.73 | inactive |
| SUSD1 | 1 | no change | no change | 0.26 | -0.67 | inactive |
| MPPED1 | 1 | no change | no change | 0.6 | 4.33 | inactive |
| GCDH | 1 | no change | no change | 1.5 | -0.86 | inactive |
| VEPH1 | 1 | no change | no change | 0.1 | 0.35 | inactive |
| MAP3K21 | 1 | no change | no change | 1.82 | 0.96 | inactive |
| GPR65 | 1 | no change | no change | 0.26 | -1.12 | inactive |
| FGF12 | 1 | no change | no change | -0.16 | 0.3 | inactive |
| RPS28 | 1 | RV2 (reduced viability) | no change | -3.71 | -1.66 | active |
| OR6C68 | 1 | no change | no change | -0.18 | -0.49 | inactive |
| MAP3K11 | 1 | no change | no change | -0.43 | -0.55 | inactive |
| RDH11 | 1 | no change | no change | -1.38 | 0.98 | inactive |
| ZMYM2 | 1 | no change | no change | 1.34 | -0.06 | inactive |

Called active, of those listed so far:
| Gene | reagent no. | viability hit class | caspase hit class | viability robust z-score | caspase robust z-score | call |
| --- | --- | --- | --- | --- | --- | --- |
| RPS28 | 1 | RV2 (reduced viability) | no change | -3.71 | -1.66 | active |

Additional reagents follow.
| Gene | reagent no. | viability hit class | caspase hit class | viability robust z-score | caspase robust z-score | call |
| --- | --- | --- | --- | --- | --- | --- |
| OR2F2 | 1 | no change | no change | 0.33 | -0.84 | inactive |
| OR2A4 | 1 | no change | no change | 0.58 | -0.3 | inactive |
| MAP4K2 | 1 | no change | no change | 1.71 | -0.44 | inactive |
| POLL | 1 | no change | no change | -0.06 | -0.29 | inactive |
| VNN2 | 1 | no change | no change | 1.38 | 0.05 | inactive |
| LTA | 1 | no change | no change | -0.75 | -0.56 | inactive |
| NHSL2 | 1 | no change | no change | 0.68 | -0.22 | inactive |
| NHSL2 | 2 | no change | no change | -0.8 | 0.84 | inactive |
